According to PubChem BioAssay AID336 (DTP/NCI, 2004):
The list does not hold the whole screen: it gathers tests that were run many times, whatever their T/C, doses with no T/C, and many T/C values between a quarter and a half above the control. Further doses and runs are listed elsewhere. T/C is the treated group as % of the vehicle group. Some entries give survivors of the animals treated and no T/C: the source files T/C as zero there, which appears to mark a toxic dose or a test without result, not a measured value. Counts of survivors are from the toxicity check (mostly the fifth day) where no day follows; animals may have died later. Schedules are NCI's codes, taken here to give the interval after Q, in days (D) or hours (H), and the number of doses after X. Where survival is the endpoint, this PubChem deposit counts one and a half times the control or more as active, and values a quarter to a half above the control carry no call in these data; other NCI protocols may use other cut-offs. Some doses were run more than once; their values stand side by side, smallest first. Some T/C values are followed by the survivors on the day toxicity was checked, most often the fifth; without a count, all were alive then.

Test system: BDF1 mice, P388/VCR leukemia ip, median survival T/C
Experiment: NCI In Vivo Anticancer Drug Screen. Data for tumor model P388 Leukemia resistant to Vincristine; NSC 67574 (intraperitoneal) in B6D2F1 (BDF1) mice
Details: T/C endpoint: median survival time, higher T/C = longer survival
Protocol: The antitumor activity of compounds was measured in mice bearing transplantable tumors. Survival or tumor size were measured and the results are expressed as the measurement made in the treated group (T) divided by the measurement made in the vehicle treated control group (C). The tumor model used in this assay is P388 Leukemia resistant to Vincristine; NSC 67574 (intraperitoneal) in B6D2F1 (BDF1) mice

SMILES: O=C(Nc1ccc(C2=NCCCN2)cc1)c1ccc(C(=O)Nc2ccc(C3=NCCCN3)cc2)cc1
- T/C (dose: 7.2 mg/kg/injection, schedule: Q04DX003 (ip), vehicle: Klucel (hydroxypropylcellulose) (HPC)): 128 % of control
- T/C (dose: 12.0 mg/kg/injection, schedule: Q04DX003 (ip), vehicle: Klucel (hydroxypropylcellulose) (HPC)): 136 % of control [7 of 8 alive]

SMILES: Nc1cc(C(=O)Nc2ccc(C3=NCCN3)cc2)cc(C(=O)Nc2ccc(C3=NCCN3)cc2)c1
- T/C (dose: 16.0 mg/kg/injection, schedule: Q01DX010 (ip), vehicle: saline): 130 % of control
- survivor count (dose: 128.0 mg/kg/injection, schedule: Q01DX010 (ip), vehicle: saline): 3 of 6

SMILES: O=C(Nc1cccc(NC(=O)Nc2cccc(C3=NCCN3)c2)c1)Nc1cccc(C2=NCCN2)c1
- T/C (dose: 27.0 mg/kg/injection, schedule: Q01DX010 (ip), vehicle: saline): 140 % of control
- T/C (dose: 60.0 mg/kg/injection, schedule: Q01DX010 (ip), vehicle: saline): 145 % of control

SMILES: O=C(Nc1ccc(C2=NCCN2)cc1)Nc1cccc(NC(=O)Nc2ccc(C3=NCCN3)cc2)c1
- T/C (dose: 240.0 mg/kg/injection, schedule: Q01DX010 (ip), vehicle: saline): 137 and 145 % of control

SMILES: O=C(Nc1ccc(C2=NCCN2)cc1)c1cc(Cl)cc(C(=O)Nc2ccc(C3=NCCN3)cc2)c1
- T/C (dose: 473.0 mg/kg/injection, schedule: Q01DX010 (ip), vehicle: saline): 131 % of control

SMILES: COc1cc(NS(C)(=O)=O)ccc1Nc1c2ccccc2nc2ccccc12
- T/C (dose: 6.0 mg/kg/injection, schedule: Q04DX003 (ip), vehicle: other): 130 % of control

SMILES: COc1ccc(CC2C(=O)NC(C)C(=O)N(C)C3Cc4ccc(cc4)Oc4cc(ccc4O)CC(C(=O)NC(C)C(=O)NC(C)C(=O)N2C)N(C)C3=O)cc1 (stereo not given)
- survivor count (dose: 12.0 mg/kg/injection, schedule: Q04DX003 (ip), vehicle: other): 3 of 8
- survivor count (dose: 20.0 mg/kg/injection, schedule: Q04DX003 (ip), vehicle: other): 1 of 8

SMILES: CC1CN1P(=S)(N1CC1C)N1CC1C (stereo not given)
- T/C (dose: 20.0 mg/kg/injection, schedule: Q01DX010 (ip), vehicle: saline): 138 % of control

SMILES: NC(Cc1ccc(N(CCCl)CCCl)cc1)C(=O)O (stereo not given)
- T/C (dose: 1.25 mg/kg/injection, schedule: Q01DX010 (ip), vehicle: saline): 140 % of control
- T/C (dose: 5.0 mg/kg/injection, schedule: Q01DX010 (ip), vehicle: saline): 143 % of control

SMILES: COc1cccc2c1C(=O)c1c(O)c3c(c(O)c1C2=O)C[C@@](O)(C(C)=O)C[C@@H]3OC1CC(N)C(O)C(C)O1 (stereo not given in full)
- T/C (dose: 1.3 mg/kg/injection, schedule: Q04DX003 (ip), vehicle: water): 135 % of control
- T/C (dose: 1.73 mg/kg/injection, schedule: Q04DX003 (ip), vehicle: water): 134 % of control
- T/C (dose: 2.16 mg/kg/injection, schedule: Q04DX003 (ip), vehicle: water): 135 % of control
- T/C (dose: 2.88 mg/kg/injection, schedule: Q04DX003 (ip), vehicle: water): 128 % of control
- T/C (dose: 4.8 mg/kg/injection, schedule: Q04DX003 (ip), vehicle: water): 133 % of control

SMILES: Cc1c2ccncc2c(C)c2c1[nH]c1ccccc12
- T/C (dose: 14.4 mg/kg/injection, schedule: Q04DX003 (ip), vehicle: clinical formulation): 145 % of control
